The list shows a part of the results.

Protein sequences, listed by entry. Tags and fused reporters are not part of them.
UniProt Q0JBA9, entry or part of it: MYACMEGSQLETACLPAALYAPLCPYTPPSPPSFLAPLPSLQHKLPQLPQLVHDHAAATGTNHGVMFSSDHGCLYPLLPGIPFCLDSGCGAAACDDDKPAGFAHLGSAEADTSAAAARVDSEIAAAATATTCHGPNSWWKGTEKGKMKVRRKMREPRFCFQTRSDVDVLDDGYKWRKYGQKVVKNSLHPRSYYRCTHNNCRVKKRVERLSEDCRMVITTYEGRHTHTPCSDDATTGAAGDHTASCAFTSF

This test addresses OsWRKY34 (Oryza sativa, UniProt Q0JBA9 1-250). Briefly: protein-binding microarray (RPBM); PBS, 2% BSA, 51.3 ng/ul salmon testes DNA, 50 uM zinc acetate, 200 nM TF, 25 C, 1 h; high values mean tight binding. The note with it: protein: recombinant; tags: N-terminal polyhistidine and DsRed monomer fusion (pET32a); label: CyDye5-dUTP incorporated in the synthesized complementary strand; 3' TTTTT single-stranded linker to array surface; dsDNA, one strand shown. In outline: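 In PBS with 2% BSA, salmon testes DNA and 50 µM zinc acetate, 200 nM protein was incubated on a custom Agilent array at 25 °C for 1 h and then washed off. The array had been made double-stranded by primer extension with Cy5-dUTP and blocked with 2% BSA. The proteins were transcription factors fused N-terminally to polyhistidine and DsRed, expressed in E. coli BL21-CodonPlus and purified on Ni–NTA. The binding signal is per-feature fluorescence intensity (arbitrary units) from an Axon 4000B scanner.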
For the sequence “ATCAACACATTCGATCCAACTCTTTTATAATCTTTAACTGCGGAGTCACCTAGTGCAG”, the binding signal is 8520 fluorescence intensity (a.u.).
As to “GGATACTTTGTTTTGTTGGGCCTAAATGGTAAGATGGGCTCGGAGTCACCTAGTGCAG”, the binding signal is 8240 fluorescence intensity (a.u.).
As to “CTCCGTATGTACCTTTATCACACCGGCGGTTACAACAGGCCGGAGTCACCTAGTGCAG”, the binding signal is 9200 fluorescence intensity (a.u.).
For the sequence “CCGAATCCGGCCACCCCGCCGCCTCCACGCGCATCACCGCCGGAGTCACCTAGTGCAG”, the binding signal is 11100 fluorescence intensity (a.u.).
Then “ACACATACTACCAATTAGACCGGCTCACACCAACCATTAACGGAGTCACCTAGTGCAG”, with 10600 fluorescence intensity (a.u.); and “CGTCATCCGTGTATGAGTCGGTTTTTAAGTTCGTTTGCTTCGGAGTCACCTAGTGCAG”, with 8170 fluorescence intensity (a.u.); and “GTCAAAGTTGTTTTTTGGAGACCGTGCCCTTGTCCAAAACCGGAGTCACCTAGTGCAG”, with 8230 fluorescence intensity (a.u.).
“CTAGTGTTCACCTCTCTTCTGCTTCATCTCCTCGATCCATCGGAGTCACCTAGTGCAG”: the binding signal is 11900 fluorescence intensity (a.u.).
Turning to “TTAACTAAGCTGTTGTCTTCTCTGCCATCGTTACCAAGTTCGGAGTCACCTAGTGCAG”, the binding signal is 10200 fluorescence intensity (a.u.).
Then “AATCGCTTTCTCTCTCTTCTTCCTTGCTCTCTCATACAACCGGAGTCACCTAGTGCAG”, with 10200 fluorescence intensity (a.u.); and “ATTTGTTTACCAGCATATATCGATCTTCAGTTAAGTTTGACGGAGTCACCTAGTGCAG”, with 9500 fluorescence intensity (a.u.).
For the sequence “TATCTTTCCTTTCTGGTCTGTGTTTTCATGTTCCCTTCTACGGAGTCACCTAGTGCAG”, the binding signal is 9930 fluorescence intensity (a.u.).
Consider “AGCATATCCATCTCCGATTCACAGATTCTTTCTGGAGATCCGGAGTCACCTAGTGCAG”, for which the binding signal is 8050 fluorescence intensity (a.u.).
Next, “CGCCATGTCAGCTTCATCCTCGCCACGTCCTCCCATGTCACGGAGTCACCTAGTGCAG”: 10300 fluorescence intensity (a.u.); “CATTAATTTTTCTTGCGAGTTTTATTTTTTGTTTTCTATTCGGAGTCACCTAGTGCAG”: 11600 fluorescence intensity (a.u.).
As for “CTTGCTATAAATCTGTAGTTCGCTGCTCTTCTTTTTCCTTCGGAGTCACCTAGTGCAG”, the binding signal was 10300 fluorescence intensity (a.u.).
Next, “TTCTCACATGTTTGACCATTCGTCTTATTAAAAATTTTATCGGAGTCACCTAGTGCAG”: 11100 fluorescence intensity (a.u.).
Then “ACGTAAATAGCAAAAGTTTTTATCAGCTTTTACCATTTTGCGGAGTCACCTAGTGCAG”, with 8200 fluorescence intensity (a.u.); and “AGTGCAGAGACTTGTTAATGATTGTAATATTCCTACTACTCGGAGTCACCTAGTGCAG”, with 8760 fluorescence intensity (a.u.); and “GATTCCTGAGCTGTACCGATATTCTTGGCCCTGTTCCTATCGGAGTCACCTAGTGCAG”, with 11300 fluorescence intensity (a.u.).
Next, “CGTTCTCTTTATTCCTCCCTCTCCTGCTTGTCTCGTTGCGCGGAGTCACCTAGTGCAG”: 8070 fluorescence intensity (a.u.); “GAAGGACTTCCATTTGACTTCCATGGTGGATTTGTTGGATCGGAGTCACCTAGTGCAG”: 9280 fluorescence intensity (a.u.); “CTGATTTCCACTCTGAATTGACCTGGTCACCCTGCGATCTCGGAGTCACCTAGTGCAG”: 8160 fluorescence intensity (a.u.).
For the sequence “CACTCGAACCCGACCCGCCTCGCCGCCGCCGCCACCGAAGCGGAGTCACCTAGTGCAG”, the binding signal was 8820 fluorescence intensity (a.u.).
Then “TGTTGTTTAGTAATCCTAGTTTGCTTCGGTTCTGTTCCCACGGAGTCACCTAGTGCAG”, with 9850 fluorescence intensity (a.u.).
Turning to “TTTTTACCTTTATTACTTACATGTGGGAGCCACTTCTATTCGGAGTCACCTAGTGCAG”, the binding signal is 8880 fluorescence intensity (a.u.).
Next, “TGCTAATGTTGATTACATTCACCACTATCACTGGATCAAACGGAGTCACCTAGTGCAG”: 9430 fluorescence intensity (a.u.).
On to “CTCAATTCCTCATCCTCATCCCACAAAAATTCCCATGTCTCGGAGTCACCTAGTGCAG”, for which the binding signal was 8600 fluorescence intensity (a.u.).
Next, “TCCTCAACTGAGTACACTTCGCCACTTTACCATTTTCATCCGGAGTCACCTAGTGCAG”: 11300 fluorescence intensity (a.u.).
Then “AAATATCAACCACATGCTCCTACTTCTATGGAAATTGATTCGGAGTCACCTAGTGCAG”, with 10400 fluorescence intensity (a.u.).
As for “AAATCGTATATTAGTTTTACCGTGGGCCGTAGAAGCTTGACGGAGTCACCTAGTGCAG”, the binding signal is 8040 fluorescence intensity (a.u.).
As to “ACTAGTATGTACCACATCATGTACTTAGGTTTCTTTTTTACGGAGTCACCTAGTGCAG”, the binding signal is 10600 fluorescence intensity (a.u.).
Regarding “ACCTGTTTTTCATGCGTTTTTTATGAGTGATTTTTTTTAACGGAGTCACCTAGTGCAG”, the binding signal was 11200 fluorescence intensity (a.u.).
Then “CTTTTCGTTTGCAAATACTCCCGATGTTACTAGATTTATCCGGAGTCACCTAGTGCAG”, with 11000 fluorescence intensity (a.u.).
Next, “CAATCTCGAGATTCTCCGCTGCTATTATCCCCGATCCAAACGGAGTCACCTAGTGCAG”: 8140 fluorescence intensity (a.u.).
Then “TTTGTCCTGCCAAAAAATGCATTTTTTCTTTTTTTTTTTCCGGAGTCACCTAGTGCAG”, with 9540 fluorescence intensity (a.u.); and “CTCCATGGCCTCAACAAGCTCACAAGCTTCTGCAACCCTGCGGAGTCACCTAGTGCAG”, with 8470 fluorescence intensity (a.u.).
Consider “GCTCGTTGTCATCACCTGCTCCAAGCCACGGGGCCTCCTCCGGAGTCACCTAGTGCAG”, for which the binding signal is 8410 fluorescence intensity (a.u.).
Then “ATAAGATGAATGGTCAAATGTTAGACAAAAAGTCAACGGCCGGAGTCACCTAGTGCAG”, with 12500 fluorescence intensity (a.u.); and “GGACGAACTCGGGTATAGGGCTGGGCGGATTGGGCGTGGGCGGAGTCACCTAGTGCAG”, with 11000 fluorescence intensity (a.u.); and “CTTTACTACTTCACATCTGATGGCTGGTGTTGAATTCATTCGGAGTCACCTAGTGCAG”, with 10400 fluorescence intensity (a.u.).
Regarding “GTCTGCTACCGTACCTGCTCTAGATCTAGTTCTATTTCTCCGGAGTCACCTAGTGCAG”, the binding signal is 9840 fluorescence intensity (a.u.).

Source of the values: PMC7819943, “Rice protein-binding microarrays: a tool to detect cis-acting elements near promoter regions in rice”.
